From publication PMC12431657, “Discovery and mechanistic insights of dibenzoylmethane as a broad spectrum inhibitor of coronavirus” (PLOS Pathogens, 2025)
Structures can show the parent of a compound that is named as a salt. Where two headings read alike, the source gives them in different places. In all, about 3,300 compounds went through this assay and about 60 (2%) showed an effect of 50% or more. The list shows a part of the results.

System: HCoV-OC43
Parameters: species or system RD; HTS, protection from HCoV-OC43 induced cell death, luminescent cell viability (CellCounting-Lite 2.0), inhibition rate
Conditions: 24 h post infection, 1 h compound pre-incubation, 10 µM, inhibitor

## CC(=O)CCC=C(C)C [Sulcatone]
  OC43 Inhibition rate: 0.5%

## O=C(c1ccc(OCCN2CCCCC2)cc1)c1c(-c2ccc(O)cc2)sc2cc(O)ccc12 [Raloxifene (hydrochloride)]
  OC43 Inhibition rate: -11.3%

## CC(=O)O[C@H]1C[C@@]2(C)[C@@H](C[C@@H](O)[C@H]3[C@@]4(C)CC[C@@H](O)[C@@H](C)[C@@H]4CC[C@@]32C)/C1=C(\CCC=C(C)C)C(=O)O [Fusidic acid]
OC43 Inhibition rate, 24 h
  OC43 Inhibition rate: 34.6%

## C[N+]1(C)CCC[C@H]1C(=O)[O-] [Stachydrine hydrochloride]
OC43 Inhibition rate, 24 h
  OC43 Inhibition rate: -0.8%

## O=c1c(O)c(-c2ccc(O)c(O)c2)oc2c(O[C@@H]3O[C@H](CO)[C@@H](O)[C@H](O)[C@H]3O)c(O)cc(O)c12 [Gossypin]
  OC43 Inhibition rate: 0.2%

## CC1(C)CC[C@]2(C(=O)O[C@@H]3O[C@H](CO)[C@@H](O)[C@H](O)[C@H]3O)CC[C@]3(C)C(=CC[C@@H]4[C@@]5(C)CC[C@H](O[C@@H]6O[C@H](C(=O)O)[C@@H](O)[C@H](O)[C@H]6O[C@H]6OC[C@@H](O)[C@H](O)[C@H]6O)C(C)(C)[C@@H]5CC[C@]43C)[C@@H]2C1 [Pseudoginsenoside RT1]
  OC43 Inhibition rate: 0.7%

## CC[C@@H](C(=O)[C@@H](C)[C@@H](O)[C@H](C)CCc1ccc(C)c(O)c1C(=O)O)[C@H]1O[C@](CC)([C@H]2CC[C@](O)(CC)[C@H](C)O2)C[C@@H]1C [Lasalocid (sodium)]
OC43 Inhibition rate, 24 h
  OC43 Inhibition rate: -11.5%

## CC(C)(C(=O)O)C(=O)O [Dimethylmalonic acid]
  OC43 Inhibition rate: 0.1%

## C[C@@H]1O[C@@H](OC[C@H]2O[C@@H](Oc3c(-c4ccc(O)c(O)c4)oc4cc(O)cc(O)c4c3=O)[C@H](O)[C@@H](O)[C@@H]2O)[C@H](O)[C@H](O)[C@H]1O [Rutin (hydrate)]
OC43 Inhibition rate, 24 h
  OC43 Inhibition rate: 0.4%

## CC(=O)O[C@H]1CC[C@]2(C)C3=C(CC[C@H]2C1(C)C)[C@]1(C)C[C@@H](O)[C@H]([C@@H](CCC=C(C)C)C(=O)O)[C@@]1(C)CC3 [3-O-Acetyl-16α-hydroxytrametenolic acid]
  OC43 Inhibition rate: -1.3%

## COc1cc(C[C@@H](CO)[C@H](CO)Cc2ccc(O)c(OC)c2)ccc1O [(+)-Secoisolariciresinol]
OC43 Inhibition rate, 24 h
  OC43 Inhibition rate: 2.3%

## CCCCCCCCCCCCCCCCC(C(=O)O)C(O)(CC(=O)O)C(=O)O (centres unmarked) [Agaric acid]
  OC43 Inhibition rate: 6.3%

## COC(=O)CCCC(=O)O [5-Methoxy-5-oxopentanoic acid]
  OC43 Inhibition rate: 5.1%

## O=C(O)[C@@H]1C[C@H](O)CN1 [cis-4-Hydroxy-L-proline]
  OC43 Inhibition rate: 2.9%

## C=C1CCCc2c(ccc3c2C(=O)C(=O)c2c(C)coc2-3)/C(C)=C/CCc2c1ccc1c2C(=O)C(=O)c2c(C)coc2-1 [Neoprzewaquinone A]
  OC43 Inhibition rate: 1.5%

## Cc1cc2nc[nH]c2cc1C [5,6-Dimethyl-1H-benzo[d]imidazole]
  OC43 Inhibition rate: -0.3%

## C1CNCCNCCNCCN1 [Cyclen]
  OC43 Inhibition rate: 22.4%

## Oc1cc(O)c2c(c1)O[C@H](c1ccc(O)c(O)c1)[C@@H](O)C2 [(+)-Catechin hydrate]
OC43 Inhibition rate, 24 h
  OC43 Inhibition rate: -0.3%

## CC1=CC(=O)CC(C)(C)[C@@]1(O)/C=C/C(C)=C\C(=O)O [Abscisic acid]
OC43 Inhibition rate, 24 h
  OC43 Inhibition rate: -5.8%

## OC[C@@H](O)[C@H](O)[C@H](O)[C@@H](O)CO [Dulcite]
  OC43 Inhibition rate: 0.8%

## COc1ccc2c(c1OC)CC1c3c(cc4c(c3-2)OCO4)CCN1C (centres unmarked) [Crebanine]
  OC43 Inhibition rate: 34.2%

## COc1ccc2c(c1OC)CN1CCc3cc4c(cc3C1C2)OCO4 (centres unmarked) [Tetrahydroberberine]
  OC43 Inhibition rate: -0.2%

## CC(=O)OCc1ccccc1 [Benzyl acetate]
  OC43 Inhibition rate: 0%

## C=C1CCC[C@]2(C)CC[C@@H](C(C)(C)O)C[C@@H]12 [Beta-Eudesmol]
  OC43 Inhibition rate: 2.4%

## C/C=C(\C)C(=O)O[C@@H]1[C@@H](OC(C)=O)[C@]2(C)[C@H](C(C)=O)CC[C@@]23O[C@]32CC[C@H]3C[C@@H](O[C@H]4C[C@@H](OC)[C@H](O[C@@H]5O[C@H](C)[C@@H](O)[C@@H](OC)[C@H]5O)[C@@H](C)O4)CC[C@]3(C)[C@@H]12 [Tenacissoside G]
  OC43 Inhibition rate: 0.5%

## COc1c(O)cc2c(c1O)[C@@H]1O[C@H](CO)[C@@H](O)[C@H](O)[C@H]1OC2=O [Bergenin]
  OC43 Inhibition rate: 0%

## C[C@H]1CC[C@@]2(OC1)O[C@H]1C[C@H]3[C@@H]4CC[C@@H]5C[C@@H](O[C@@H]6O[C@H](CO)[C@H](O)[C@H](O)[C@H]6O[C@@H]6O[C@H](CO)[C@@H](O)[C@H](O)[C@H]6O)CC[C@]5(C)[C@H]4CC[C@]3(C)[C@H]1[C@@H]2C [Timosaponin AIII]
  OC43 Inhibition rate: 5.7%

## O=C(O)c1ccc(O)cc1 [4-Hydroxybenzoic acid]
  OC43 Inhibition rate: 0.1%

## COc1ccc(C(C)=O)c(O)c1 [Paeonol]
  OC43 Inhibition rate: 1.6%

## C[C@@H]1O[C@@H](O[C@@H]2[C@@H](O)[C@H](OCCc3ccc(O)c(O)c3)O[C@H](CO[C@@H]3O[C@H](CO)[C@@H](O)[C@H](O)[C@H]3O)[C@H]2OC(=O)/C=C/c2ccc(O)c(O)c2)[C@H](O)[C@H](O)[C@H]1O [Echinacoside]
  OC43 Inhibition rate: 0%

## COC1=CC(=O)O[C@@H](/C=C/c2ccc3c(c2)OCO3)C1 [Methylsticin]
  OC43 Inhibition rate: -0.1%

## COc1cc([C@H]2Oc3cc([C@H]4Oc5cc(O)cc(O)c5C(=O)[C@@H]4O)ccc3O[C@@H]2CO)ccc1O [Silibinin]
OC43 Inhibition rate, 24 h
  OC43 Inhibition rate: 1.4%

## COc1ccc(-c2oc3cc(OC)c(OC)c(O)c3c(=O)c2OC)cc1O [Casticin]
  OC43 Inhibition rate: 14.3%

## CC(=O)O[C@H]1CC[C@]2(C)[C@H]3CC=C4[C@@H]5CC(C)(C)CC[C@]5(C(=O)O)CC[C@@]4(C)[C@]3(C)CC[C@H]2C1(C)C [3-O-Acetyloleanolic acid]
  OC43 Inhibition rate: 0.2%

## C[C@@H]1CC[C@]2(C(=O)O[C@@H]3O[C@H](CO)[C@@H](O)[C@H](O)[C@H]3O)CC[C@]3(C)C(=CC[C@@H]4[C@@]5(C)CC[C@H](O[C@@H]6OC[C@H](O)[C@H](O)[C@H]6O)C(C)(C)[C@@H]5CC[C@]43C)[C@@H]2[C@]1(C)O [Ziyuglycoside I]
  OC43 Inhibition rate: 0.3%
